Experimental data taken from the supplement of paper PMC12889115.
The list shows a part of the results. Values are raw readings; no control value is given beside them.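 In the initial screen, polymyxin B was used at a concentration that permeabilizes Salmonella's outer membrane but not its inner membrane. Maximum growth was set by DMSO wells with or without polymyxin B. Since plates varied, data were ranked per plate, and compounds giving the lowest OD600 advanced as hits.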

Test system: Salmonella enterica serovar Typhimurium SL1344
Experiment: bacterial growth OD600 after 18 h with compound and polymyxin B; higher = more bacterial growth (less inhibition)
Details: 50 µM, Mueller-Hinton broth

Structure (SMILES) | bacterial growth OD600 (polymyxin B 0.75 µg/mL) | bacterial growth OD600 (polymyxin B 1 µg/mL)
CCN1CCN(C2(C(=O)NC3CCOC(C)(C)C3)Cc3ccccc3C2)CC1 (centres undefined) | 0.857 | 
OC(Cc1ccccc1)c1ccc2c(c1)CN(Cc1c(F)ccc(F)c1F)CCO2 (centres undefined) | 0.004 | 
CCOC(=O)C1(CCCc2ccccc2)CCN(C(=O)CN2CCOC2=O)CC1 |  | 0.837
O=C(NCC1CCCCO1)c1cc(Cn2ccc3ccccc32)[nH]n1 (centres undefined) |  | 0.927
Cc1cccn2c(CNC(C)CCCC(C)(C)O)c(C(=O)N3CCOCC3)nc12 (centres undefined) | 0.978 | 
Cc1cccc(-c2cnc(-c3ccncc3)nc2C2CCN(C(=O)CC3=CCCCC3)CC2)c1 | -0.003 | 
CCOC(=O)N1CCC(NCc2cccnc2Oc2ccccc2C)CC1 |  | 0.827
Cc1nc(N2CCC(C(=O)N3CCCC(c4ccccc4)C3)CC2)nc2cc(S(C)(=O)=O)ccc12 (centres undefined) | 0.755 | 
COC(C(=O)N1CCc2c(cnc(C)c2CNC(=O)CSc2ccccc2)C1)c1ccccc1 (centres undefined) | 0.848 | 
CCOC(=O)CNC(=O)N1CCc2onc(-c3cccc(OC)c3)c2C1 | 0.64 | 
COc1cccc(CNC(=O)c2sc3ncnc(NC[C@H]4C[C@@H]5C=C[C@H]4C5)c3c2C)c1OC | 0.774 | 
C[C@@H]1CN(c2ccc(-c3nc(COc4ccccc4)no3)cn2)C[C@H](C)O1 |  | 0.731
C=CCO[C@H]1[C@H](NC(=O)CSC)c2ccccc2C12CCN(Cc1cccc3cnccc13)CC2 | 0.82 | 
COc1ccc(F)c(CC2(CCC(=O)N3CC4(C)CC3CC(C)(C)C4)CCC(=O)N2)c1 (centres undefined) | 1.03 | 
CC(Cc1ccc(O)cc1)N1CCC(N2CCC(C(=O)NCc3cccnc3)CC2)CC1 (centres undefined) |  | 1.11
CCOC(=O)N1CCC(N2C(=O)CCC2CCNCc2ccc(C(=O)OC)cc2)CC1 (centres undefined) | 0.846 | 
COCc1noc(-c2ccc(N(C)C(C)c3ccccc3OC)nc2)n1 (centres undefined) |  | 0.774
COc1ccc(NC(=O)CCC2CCCN(C(=O)CCc3c(C)noc3C)C2)cc1Cl (centres undefined) |  | 0.963
CN(C(=O)c1ccco1)C(Cc1ccc(F)cc1F)C1CCN(Cc2ccc3c(c2)OCO3)CC1 (centres undefined) | 0.646 | 

Reprinted at random: two records from the list.
Structure (SMILES) | bacterial growth OD600 (polymyxin B 0.75 µg/mL) | bacterial growth OD600 (polymyxin B 1 µg/mL)
CCN1CCN(C2(C(=O)NC3CCOC(C)(C)C3)Cc3ccccc3C2)CC1 (centres undefined) | 0.857 | 
Cc1cccc(-c2cnc(-c3ccncc3)nc2C2CCN(C(=O)CC3=CCCCC3)CC2)c1 | -0.003 | 
